The list shows a part of the results. These are further read-outs of the screen, such as a control signal, another cell line or another target. No call is given for them. Most of these compounds were active or inconclusive in the main read-out, so they are no random draw. Potencies come from curve fits of mixed quality, noted in brackets.

The test in a line: qHTS Assay for Lipid Storage Modulators in Drosophila S3 Cells.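 For cell number change: cells counted by Cell Tracker Red CMTPX staining in the red channel.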 Particulars: BODIPY lipid droplet fluorescence, 18-24 h; for cell number change: measured here: cell count max response, cells fed with added oleic acid. The gist of the method:
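Drosophila S3 cells loaded with oleic acid (400 uM, as added) and compounds at several concentrations; lipid droplets imaged by 488-nm laser-scanning cytometry, 500–530 nm intensity and object ratio to cell channel. Percent activity normalized to 20 uM Triacsin C.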

[1] abbreviates: measured here: lipid fluorescence (Fed channel) AC50, cells fed with added oleic acid.
Where [2] appears, read: measured here: cell number channel AC50, cells fed with added oleic acid.

Regarding `O=C(O)C1CCCCC1C(=O)NC1CCCCC1` (centres undefined), the cell number change is -12.3%. In addition, under setting [1], the AC50 was 4.11 µM [falling, partial curve, poor fit]. With `COc1cccc(CNc2ccc(F)c(Cl)c2)c1`, the cell number change was -18.2%. Further, the AC50 under setting [2] was 1.03 µM [falling, full curve]. In addition, under setting [1], the AC50 was 3.66 µM [falling, full curve]. Regarding `CC#C[C@@H](CC)c1ccc2ccn(C)c2c1`, the cell number change was -37.6%. The AC50 under setting [2] was 23.1 µM [falling, single point]. For the same compound, under setting [1], the AC50 is 0.164 µM [rising, single point].

For `COc1ccc(CC(=O)Nc2cc(C)c3c(=O)oc4ccccc4c3n2)cc1`, the AC50 under setting [2] was 0.116 µM [rising, full curve, poor fit] and the AC50 under setting [1] is 0.13 µM [rising, full curve, poor fit]. With `CCOC(=O)C1CCN(C(=O)c2c(C)oc3c2C(=O)c2ccccc2C3=O)CC1`, the cell number change is -28.4%. Also, the AC50 under setting [1] was 18.4 µM [falling, partial curve].

In the case of `O=C(Nc1ccc([N+](=O)[O-])cc1)Nc1ccc(Cl)cc1F`, the cell number change is -48.9%. In addition, the AC50 under setting [2] is 0.231 µM [falling, full curve]. In addition, the AC50 under setting [1] is 13 µM [falling, partial curve].

Take `CCN(c1ccc(OC)cc1)S(=O)(=O)c1ccc(-c2cc(C)no2)s1`: the cell number change is -10.4%. The concentration at half-maximal activity (AC50) under setting [1] was 18.4 µM [rising, single point]. Take `O=C(NC1C2CC3CC(C2)CC1C3)C1CCCCC1` (centres undefined): the cell number change is -2.46%. The same measure, in the same setting: for `Cc1ccc(-c2ccc(OC(=O)c3ccc(=O)[nH]c3)c(C)c2)cc1` the value was 22.7%. As for `Cc1cc2c(cc(C(=O)N3CCC(C(=O)N4CCCC4)CC3)n2Cc2c(F)cccc2Cl)o1`, the cell number change was -62.3%. Further, under setting [2], the concentration at half-maximal activity (AC50) is 20.6 µM [falling, single point]. In addition, the AC50 under setting [1] was 18.4 µM [falling, single point]. `COc1ccc(C(CC(=O)NCCN2CCOCC2)NS(=O)(=O)c2ccc(C)cc2)cc1` (centres undefined): the AC50 under setting [1] is 2.06 µM [falling, partial curve]. As to `O=C(COc1cccc(C(F)(F)F)c1)Nc1ccc(S(=O)(=O)N2CCCC2)cc1`, the cell number change is -35.3%. Moreover, the AC50 under setting [2] is 5.8 µM [falling, single point]. As to `CCC(=O)Oc1ccc(C(=O)Nc2ccc3c(c2)C(=O)N(C2CCCCC2)C3=O)cc1`, the cell number change stood at 34.9%. Under setting [2], the AC50 was 32.6 µM [rising, single point]. Also, the AC50 under setting [1] was 20.6 µM [rising, partial curve]. Regarding `CCc1ccc(-c2c(C)sc(NC(=O)C3CCC3)c2C#N)cc1`, the cell number change is -10.1%. The AC50 under setting [1] is 0.58 µM [falling, partial curve].

Turning to `O=C(c1ccccc1)N1CCSc2sccc2C1=O`, the cell number change worked out at 13.9%. With `Cc1ccccc1NC(=O)Cc1nc(COC(=O)c2cc(Br)ccc2O)cs1`, the cell number change was -39.2%. For the same compound, the AC50 under setting [2] is 18.4 µM [falling, single point]. Moreover, the AC50 under setting [1] was 1.64 µM [falling, partial curve]. For the compound `CCC(=O)Nc1ccc(CCC(=O)N2CCCC2)cc1`, the cell number change was found to be 8.11%. Regarding `CCCc1nnc(SCC(=O)Nc2ccc(OC)cc2)o1`, the cell number change is 10.3%. Besides, the AC50 under setting [1] is 0.092 µM [rising, full curve, poor fit]. As to `c1ccc(-c2cnnc3ccccc23)cc1`, the cell number change amounted to 20.3%. Also, under setting [2], the AC50 is 0.291 µM [rising, full curve, poor fit]. The AC50 under setting [1] was 18.4 µM [rising, single point].

As to `C/C(CC(=O)Nc1ccc(N(C)C)cc1)=N\NC(=O)c1cnccn1`, the cell number change is 10.4%. The AC50 under setting [1] is 11.6 µM [rising, partial curve, poor fit]. In the case of `Cc1cc2oc(=O)cc(Cn3nnc(-c4ccc(Cl)cc4)n3)c2cc1C(C)C`, the cell number change was 13.6%. Besides, under setting [1], the AC50 is 0.184 µM [rising, full curve, poor fit]. As for `O=C(O)c1cnc(-c2ccccc2)nc1Sc1ccc(Cl)cc1Cl`, the cell number change stood at 13.5%. `c1ccc(-c2ccc(-c3ccccn3)nn2)nc1`: the cell number change was -14.7%. In addition, the AC50 under setting [1] was 0.00517 µM [falling, full curve, poor fit]. Consider `CC(C)Cc1nnc(NC(=O)CN2C(=O)NC3(CCCC3)C2=O)s1`, for which the cell number change is -50%. The AC50 under setting [2] was 2.06 µM [falling, full curve, poor fit].

Turning to `Cc1cc(C(=O)N2CCN(S(=O)(=O)c3ccc(F)c(Cl)c3)CC2)c(C)o1`, the cell number change was -3.13%. The AC50 under setting [1] is 29.1 µM [falling, single point].

With `COCc1ccc(C(=O)NC2CCCc3c2cnn3-c2ccc(C)c(C)c2)o1` (centres undefined), the cell number change was -9.9%. Besides, the AC50 under setting [2] was 0.058 µM [falling, full curve, poor fit]. Moreover, the concentration at half-maximal activity (AC50) under setting [1] was 0.0206 µM [falling, full curve]. Regarding `Cc1nnsc1C(=O)N1CCCC(N2CCN(c3ccc(F)cc3)CC2)C1` (centres undefined), the cell number change was found to be 22.9%. Further, the AC50 under setting [1] is 9.2 µM [rising, partial curve, poor fit]. Turning to `CCc1cc(=O)oc2cc(C)cc(OC(C)C(=O)NCc3ccccn3)c12` (centres undefined), the cell number change turned out to be 23.4%. `Cc1ccc2cccc(OCC(=O)Nc3ccc4c(c3)OCO4)c2n1`: the cell number change was 18.5%. Turning to `COc1ccccc1CCC(=O)OCC(=O)Nc1ccc(C)c(S(=O)(=O)N2CCCCC2)c1`, the cell number change was 9.78%. For the same compound, the AC50 under setting [1] was 5.8 µM [rising, full curve, poor fit]. As for `CC1CCN(C(=O)C(=O)c2cn(CC(=O)N3CCCCCC3)c3ccccc23)CC1`, the AC50 was 5.17 µM [rising, single point] under setting [2] and 23.1 µM [falling, single point] under setting [1]. As to `O=C(Nn1c(-c2ccncc2)nc2ccccc2c1=O)c1ccc([N+](=O)[O-])cc1Cl`, the concentration at half-maximal activity (AC50) was 6.51 µM [rising, single point] under setting [2] and 16.4 µM [rising, partial curve] under setting [1]. For `COc1cccc(NC(=S)N2CCN(c3ccc([N+](=O)[O-])cc3)CC2)c1`, the cell number change is -14.4%.

For the compound `CCOC(=O)N1CCN(c2c(Nc3cc(C)[nH]n3)c(=O)c2=O)CC1`, the cell number change is -4.05%. In addition, the AC50 under setting [1] is 0.651 µM [falling, partial curve, poor fit].

In the case of `COc1ccc(CSC2=NCCN2)cc1Cl`, the cell number change was -5.56%. For `COc1ccccc1NC(=O)Nc1ccnn1C1CCCCC1`, the cell number change is -15.1%.

On to `COc1cccc(CNC(=O)COC(=O)c2cc([N+](=O)[O-])ccc2N2CCCC2)c1`, for which the cell number change was -37.1%. The AC50 under setting [2] was 29.1 µM [falling, single point]. Moreover, the AC50 under setting [1] was 18.4 µM [falling, single point].

With `CCOC(=O)C1=C(C)Nc2ncnn2C1c1c[nH]c2ccccc12` (centres undefined), the cell number change is -2.86%. Further, the AC50 under setting [1] was 29.1 µM [rising, single point].

Source of the values: PubChem BioAssay AID2685 (National Center for Advancing Translational Sciences (NCATS), 2010).
